Laboratory results as given in the M2OR odorant receptor database.
Where a chain is given by its changes, count along the chain named. Only a part is listed here, and it is no random draw. The calls were merged from several studies; some rest on single wells. The list shows a part of the results.

Chains of the proteins cited; added tags and fusions are not shown. A line that says so, or that is headed by a name, gives the form on record, which may keep a tag or linker.
OR4Q3, as listed by the source: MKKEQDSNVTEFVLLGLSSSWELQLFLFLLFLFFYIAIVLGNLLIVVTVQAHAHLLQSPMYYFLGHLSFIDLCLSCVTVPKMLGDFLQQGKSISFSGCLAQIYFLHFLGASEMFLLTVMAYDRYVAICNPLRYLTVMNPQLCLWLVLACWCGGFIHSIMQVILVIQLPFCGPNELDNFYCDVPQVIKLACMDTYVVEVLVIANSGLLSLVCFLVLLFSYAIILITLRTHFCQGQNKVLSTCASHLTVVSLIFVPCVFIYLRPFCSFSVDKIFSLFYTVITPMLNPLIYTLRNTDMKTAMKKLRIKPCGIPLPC

Legend:
Conditions in all cases: stereoisomer not certain
OR4N4 (Homo sapiens) = molecular target: T1, OR4N4 (Homo sapiens) (UniProt Q8N0Y3)
T1 sequence (whole entry): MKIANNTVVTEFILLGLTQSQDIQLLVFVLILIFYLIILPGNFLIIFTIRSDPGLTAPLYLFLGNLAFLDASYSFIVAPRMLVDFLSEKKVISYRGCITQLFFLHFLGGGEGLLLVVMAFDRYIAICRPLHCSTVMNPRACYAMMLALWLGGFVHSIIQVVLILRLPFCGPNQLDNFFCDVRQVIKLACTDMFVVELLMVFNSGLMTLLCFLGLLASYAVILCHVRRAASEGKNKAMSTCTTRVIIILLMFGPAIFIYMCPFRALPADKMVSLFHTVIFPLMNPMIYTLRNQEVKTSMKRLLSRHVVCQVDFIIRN
How it was run: (§1)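 Whether a receptor–molecule pair is responsive (active) rests on the original authors' judgment that its measured signal was statistically different from baseline. Pairs without that judgment are non-responsive (inactive). Sources used varied assay methods, commonly transient luciferase assays in mammalian cell lines.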

OR4N5 (Homo sapiens) = molecular target: T2, OR4N5 (Homo sapiens) (UniProt Q8IXE1)
T2 sequence (whole entry): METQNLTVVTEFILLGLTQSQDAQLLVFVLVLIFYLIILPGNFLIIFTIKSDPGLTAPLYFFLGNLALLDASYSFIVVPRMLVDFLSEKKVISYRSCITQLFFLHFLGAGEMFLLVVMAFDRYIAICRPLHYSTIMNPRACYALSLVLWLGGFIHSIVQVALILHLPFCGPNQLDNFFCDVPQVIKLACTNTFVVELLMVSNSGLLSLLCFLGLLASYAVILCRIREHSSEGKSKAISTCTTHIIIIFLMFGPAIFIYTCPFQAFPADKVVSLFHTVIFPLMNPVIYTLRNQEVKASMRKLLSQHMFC
How it was run: as §1

OR4P4 [1] = tested on: T3, OR4P4
T3 sequence (whole entry): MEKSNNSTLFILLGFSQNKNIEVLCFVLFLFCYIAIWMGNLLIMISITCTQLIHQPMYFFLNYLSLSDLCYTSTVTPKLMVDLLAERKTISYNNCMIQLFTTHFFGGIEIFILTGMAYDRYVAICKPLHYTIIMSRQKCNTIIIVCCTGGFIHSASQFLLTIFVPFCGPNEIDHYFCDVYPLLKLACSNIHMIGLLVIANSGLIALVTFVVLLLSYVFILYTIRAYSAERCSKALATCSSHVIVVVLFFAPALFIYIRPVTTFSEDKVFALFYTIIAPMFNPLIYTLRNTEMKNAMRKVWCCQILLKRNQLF
How it was run: as §1

OR4P4 [2] = tested on: T4, OR4P4; remark: listed apart in the source
T4 sequence (whole entry): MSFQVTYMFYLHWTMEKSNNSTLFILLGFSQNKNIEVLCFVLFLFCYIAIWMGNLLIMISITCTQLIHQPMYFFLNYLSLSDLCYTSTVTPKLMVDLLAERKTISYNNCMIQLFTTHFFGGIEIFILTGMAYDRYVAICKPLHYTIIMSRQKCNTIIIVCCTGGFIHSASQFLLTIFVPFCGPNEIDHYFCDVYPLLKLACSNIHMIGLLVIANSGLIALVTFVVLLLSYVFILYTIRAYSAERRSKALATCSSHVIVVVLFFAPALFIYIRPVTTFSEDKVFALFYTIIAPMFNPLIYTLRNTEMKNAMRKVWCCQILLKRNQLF
How it was run: as §1

OR4Q3 (Homo sapiens) = molecular target: T5, OR4Q3 (Homo sapiens) (UniProt Q8NH05)
T5 sequence (whole entry): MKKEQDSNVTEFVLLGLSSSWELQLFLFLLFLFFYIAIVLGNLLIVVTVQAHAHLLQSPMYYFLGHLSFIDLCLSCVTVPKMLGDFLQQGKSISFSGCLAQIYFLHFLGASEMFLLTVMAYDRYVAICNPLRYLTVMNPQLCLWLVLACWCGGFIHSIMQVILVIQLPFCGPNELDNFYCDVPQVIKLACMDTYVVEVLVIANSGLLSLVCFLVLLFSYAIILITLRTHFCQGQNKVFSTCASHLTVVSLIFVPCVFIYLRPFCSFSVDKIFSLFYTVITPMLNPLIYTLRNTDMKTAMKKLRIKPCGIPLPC
How it was run: as §1

OR4S1 (Homo sapiens) = molecular target: T6, OR4S1 (Homo sapiens) (UniProt Q8NGB4)
T6 sequence (whole entry): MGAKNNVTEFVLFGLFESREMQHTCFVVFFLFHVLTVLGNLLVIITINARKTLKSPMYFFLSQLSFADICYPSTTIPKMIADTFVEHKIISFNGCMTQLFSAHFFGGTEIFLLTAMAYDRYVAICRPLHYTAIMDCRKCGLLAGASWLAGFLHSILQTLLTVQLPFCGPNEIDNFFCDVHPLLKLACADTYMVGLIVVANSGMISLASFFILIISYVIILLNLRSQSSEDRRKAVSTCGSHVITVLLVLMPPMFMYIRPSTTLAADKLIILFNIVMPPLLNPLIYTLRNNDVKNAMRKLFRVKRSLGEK
How it was run: as §1

OR4S2 (Homo sapiens) = molecular target: T7, OR4S2 (Homo sapiens) (UniProt Q8NH73)
T7 sequence (whole entry): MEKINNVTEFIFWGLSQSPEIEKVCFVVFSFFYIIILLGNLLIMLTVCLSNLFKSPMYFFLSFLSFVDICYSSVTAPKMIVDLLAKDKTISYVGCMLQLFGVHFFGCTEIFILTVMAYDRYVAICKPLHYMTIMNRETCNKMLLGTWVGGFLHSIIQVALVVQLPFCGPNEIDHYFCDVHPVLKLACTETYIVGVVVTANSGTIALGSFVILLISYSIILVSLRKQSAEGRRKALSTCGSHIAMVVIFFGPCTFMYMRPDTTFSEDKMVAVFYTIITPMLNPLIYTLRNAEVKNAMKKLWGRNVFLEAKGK
How it was run: as §1

OR4X1 = tested on: T8, OR4X1
T8 sequence (whole entry): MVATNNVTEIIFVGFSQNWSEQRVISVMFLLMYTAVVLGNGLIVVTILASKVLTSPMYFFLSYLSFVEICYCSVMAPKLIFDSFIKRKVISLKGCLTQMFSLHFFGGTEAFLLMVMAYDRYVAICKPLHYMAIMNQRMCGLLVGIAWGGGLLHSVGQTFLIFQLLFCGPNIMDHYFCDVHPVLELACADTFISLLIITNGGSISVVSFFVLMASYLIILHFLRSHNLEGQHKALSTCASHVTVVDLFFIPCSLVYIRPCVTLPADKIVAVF
How it was run: as §1

OR4X2 (Homo sapiens) = molecular target: T9, OR4X2 (Homo sapiens) (UniProt Q8NGF9)
T9 sequence (whole entry): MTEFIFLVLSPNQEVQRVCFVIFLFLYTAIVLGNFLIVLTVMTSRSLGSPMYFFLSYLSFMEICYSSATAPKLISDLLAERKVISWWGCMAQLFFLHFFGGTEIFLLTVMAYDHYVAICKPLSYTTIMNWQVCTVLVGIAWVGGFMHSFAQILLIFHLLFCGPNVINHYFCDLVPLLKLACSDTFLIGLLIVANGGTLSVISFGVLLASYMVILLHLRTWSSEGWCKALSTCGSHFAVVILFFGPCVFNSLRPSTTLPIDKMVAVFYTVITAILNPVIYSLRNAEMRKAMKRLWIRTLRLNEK
How it was run: as §1

OR51A2 (Homo sapiens) = molecular target: T10, OR51A2 (Homo sapiens) (UniProt Q8NGJ7)
T10 sequence (whole entry): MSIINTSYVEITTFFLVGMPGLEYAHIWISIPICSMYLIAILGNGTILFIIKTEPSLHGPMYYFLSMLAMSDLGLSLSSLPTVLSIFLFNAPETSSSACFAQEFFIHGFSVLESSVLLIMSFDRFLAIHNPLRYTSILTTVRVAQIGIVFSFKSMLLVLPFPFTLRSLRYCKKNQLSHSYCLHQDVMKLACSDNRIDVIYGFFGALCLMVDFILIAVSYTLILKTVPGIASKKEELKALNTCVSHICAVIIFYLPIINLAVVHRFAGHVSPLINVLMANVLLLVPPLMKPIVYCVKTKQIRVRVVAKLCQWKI
How it was run: as §1

OR51B2 (Homo sapiens) = molecular target: T11, OR51B2 (Homo sapiens) (UniProt Q9Y5P1)
T11 sequence (whole entry): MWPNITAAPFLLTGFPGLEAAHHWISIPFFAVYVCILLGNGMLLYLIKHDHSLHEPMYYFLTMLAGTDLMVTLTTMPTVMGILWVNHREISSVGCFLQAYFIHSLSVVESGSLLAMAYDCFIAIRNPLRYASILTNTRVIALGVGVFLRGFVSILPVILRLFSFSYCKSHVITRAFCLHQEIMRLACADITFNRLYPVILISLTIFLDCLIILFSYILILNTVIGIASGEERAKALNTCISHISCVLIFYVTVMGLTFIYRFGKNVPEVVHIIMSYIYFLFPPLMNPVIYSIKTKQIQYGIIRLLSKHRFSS
How it was run: as §1

OR4Q3 = tested on: OR4Q3
How it was run: as §1

OR4P4 (Homo sapiens) = OR4P4 (Homo sapiens) (UniProt Q8NGL7)
How it was run: as §1

OR4X1 (Homo sapiens) = OR4X1 (Homo sapiens) (UniProt Q8NH49)
How it was run: as §1

OR51A4 (Homo sapiens) = molecular target: T12, OR51A4 (Homo sapiens) (UniProt Q8NGJ6)
T12 sequence (whole entry): T10 sequence (whole entry) with G59E, T94I, S97N, S167N, P227L, E235Q, G267R, M288T, K289N, W311R
How it was run: as §1

Measured: odorant receptor agonist call;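 also: active if original authors judged signal statistically different from baseline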

CCCCCCCOC(C)=O
not listed: OR4Q3 | OR4P4 (Homo sapiens) | OR4X1 (Homo sapiens) | OR51A4 (Homo sapiens)
inactive: all other assays above

CC12C=CCC1C1CCC3=CC(=O)CCC3(C)C1CC2 (stereo not given)
not listed: OR4P4 (Homo sapiens) | OR4X1 (Homo sapiens) | OR51A4 (Homo sapiens)
inactive: all other assays above

COc1ccccc1O
not listed: OR4Q3 | OR4P4 (Homo sapiens) | OR4X1 (Homo sapiens) | OR51A4 (Homo sapiens)
inactive: all other assays above

CC(=O)c1ccccc1
active: OR4S2 (Homo sapiens) | OR4X2 (Homo sapiens)
inactive: OR4N4 (Homo sapiens) | OR4N5 (Homo sapiens) | OR4P4 [1] | OR4P4 [2] | OR4Q3 (Homo sapiens) | OR4S1 (Homo sapiens) | OR4X1

CCCCCC(C)=O
not listed: OR51A2 (Homo sapiens) | OR51B2 (Homo sapiens) | OR4Q3 | OR4P4 (Homo sapiens) | OR4X1 (Homo sapiens) | OR51A4 (Homo sapiens)
inactive: all other assays above

CC12C=CCC1C1CCC3CC(=O)CCC3(C)C1CC2 (stereo not given)
active: OR4P4 [2]
not listed: OR4S2 (Homo sapiens) | OR4Q3
inactive: all other assays above
